# Measured values as given in PMC4405268.
# Chains of the proteins cited; added tags and fusions are not shown. Residues count along the entry.
# UniProt P14625, residues 22-803: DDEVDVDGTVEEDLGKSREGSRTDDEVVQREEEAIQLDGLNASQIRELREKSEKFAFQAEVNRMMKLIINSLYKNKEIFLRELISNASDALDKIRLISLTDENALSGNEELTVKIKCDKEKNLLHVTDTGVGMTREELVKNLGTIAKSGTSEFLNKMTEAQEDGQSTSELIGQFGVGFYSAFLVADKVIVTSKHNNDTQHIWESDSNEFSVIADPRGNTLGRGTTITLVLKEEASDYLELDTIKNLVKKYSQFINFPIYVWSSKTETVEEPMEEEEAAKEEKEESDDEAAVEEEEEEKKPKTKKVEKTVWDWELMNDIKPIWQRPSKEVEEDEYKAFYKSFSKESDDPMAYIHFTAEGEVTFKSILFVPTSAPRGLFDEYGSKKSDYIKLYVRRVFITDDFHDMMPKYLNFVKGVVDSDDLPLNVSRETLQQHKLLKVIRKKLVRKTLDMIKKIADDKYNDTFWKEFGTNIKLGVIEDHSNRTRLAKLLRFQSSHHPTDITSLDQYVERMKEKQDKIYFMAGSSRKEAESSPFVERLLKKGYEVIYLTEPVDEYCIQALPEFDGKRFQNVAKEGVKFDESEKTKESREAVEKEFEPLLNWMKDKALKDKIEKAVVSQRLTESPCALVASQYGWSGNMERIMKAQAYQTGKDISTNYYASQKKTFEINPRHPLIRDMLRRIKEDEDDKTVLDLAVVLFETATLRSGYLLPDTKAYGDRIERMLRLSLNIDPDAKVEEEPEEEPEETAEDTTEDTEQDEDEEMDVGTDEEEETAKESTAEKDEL
# These are yes or no findings as the source states them, for the method shown. For some assays here: In cells and extracts the contact can be indirect. Some entries that bind do so weakly or less than the wild type.
# Key:
# [1] = target: HER2, endogenous in SK-BR-3 cells (human (endogenous in SK-BR-3)) (UniProt P04626); assay: co-IP; total lysate of SK-BR-3 cells precipitated with anti-HER2 antibody and Protein G Sepharose, Western blot; cells treated with 20 μg/ml of p37 or control peptide for 30 min; for HER1 and HER3, cells pre-treated with EGF (50 ng/ml) or β-heregulin (100 ng/ml) for 15 min
# [2] = target: gp96 inhibitory peptide p37, biotin conjugated; assay: ELISA; biotinylated peptides on 96-well streptavidin plates; purified gp96 at 0 to 20 μg/ml added in 20 mM HEPES (pH 7.2), 20 mM NaCl, 2 mM MgCl2, 100 mM KCl for 1.5 h; detected with anti-gp96 antibody and HRP-conjugated secondary antibody, TMB, 450 nm; both purified
binding [1],binding [2],Substance
binds,,"gp96, endogenous in SK-BR-3 cells (from UniProt P14625 22-803)"
,binds,"heat shock protein gp96, purified (from UniProt P14625 22-803)"
